No constants are given. Whether binding was seen depends on the method and setting.
Target: CARD8^CARD D511K (P446-L537, with A452C) (human) (UniProt Q9Y2G2)
Experiment: negative-stain EM of filaments formed in vitro

Sequences of proteins named here, by UniProt entry; tags and fusion partners are left off. A change or cut given only in a name is not applied to a line headed by its entry. A line that says so, or that is headed by a name, gives the form on record, which may keep a tag or linker.
CARD8^CARD D511K (P446-L537, with A452C) (Q9Y2G2-5, form named): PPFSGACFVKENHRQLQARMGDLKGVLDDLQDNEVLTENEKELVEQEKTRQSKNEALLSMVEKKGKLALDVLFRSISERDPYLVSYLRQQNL

- binding: no binding
Substance: CARD8^CARD D511K (P446-L537, with A452C) (from UniProt Q9Y2G2-5 446-537) (domain or fragment)
